These are yes or no findings as the source states them, for the method shown. Some entries that bind do so weakly or less than the wild type. Each block holds one binder with its values, some of them ahead of it.
What was measured:
[1] = target: cynomolgus monkey PD-L1 (cynomolgus monkey) (UniProt G7PSE7); experiment: ELISA, antigen coated
[2] = target: cynomolgus monkey PD-L1 (cynomolgus monkey) (UniProt G7PSE7); experiment: ELISA, cynomolgus PD-L1 coated on the plate, goat anti-human IgG Fc-HRP; single bar, antibody concentration not shown
[3] = target: full-length human PD-L1 expressed on CHO cells (human) (UniProt Q9NZQ7); experiment: FACS
[4] = target: full-length human PD-L1 expressed on CHO cells (human) (UniProt Q9NZQ7); experiment: FACS on CHO cells transfected with PD-L1
[5] = target: full-length human PD-L1 expressed on CHO cells (human) (UniProt Q9NZQ7); experiment: FACS on CHO cells transfected with full-length human PD-L1
[6] = target: full-length human PD-L1 expressed on CHO cells (human) (UniProt Q9NZQ7); experiment: FACS on PD-L1 transfected CHO-K1 cells, single bar, antibody concentration not shown
[7] = target: full-length human PD-L1 expressed on CHO cells (human) (UniProt Q9NZQ7); experiment: FACS competition: antibody pre-bound to CHO cells expressing human PD-L1, then mouse Fc-tagged human PD-1 added and detected

Chains of the proteins cited; added tags and fusions are not shown. Residues count along the entry.
UniProt Q9NZQ7, residues 19-290: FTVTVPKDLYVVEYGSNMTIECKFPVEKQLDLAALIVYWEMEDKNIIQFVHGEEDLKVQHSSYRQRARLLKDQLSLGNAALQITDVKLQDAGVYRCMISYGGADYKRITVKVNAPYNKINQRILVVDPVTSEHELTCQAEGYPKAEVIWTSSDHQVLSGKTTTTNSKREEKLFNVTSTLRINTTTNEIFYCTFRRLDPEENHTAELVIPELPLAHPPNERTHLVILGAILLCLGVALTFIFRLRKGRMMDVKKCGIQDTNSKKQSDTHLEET

binding [1]: binds
binding [2]: binds
B1: 1.20.15 (antibody, V domains shown)
VH: QLQLQESGPGLVKPSETLSLTCTVSGGSISSISNYWGWIRQPPGKGLEWIGSIYYSGSTNYNPPLKSRVTISVDTTKNQFSLKLSSVTAADTAVYYCARLTYYFDYWGQGMLVTVSS
VL: SYDLTQPPSVSVSPGQTASITCSGDKLGDKYACWYQQKPGQSPLLVIQQDSKRPSGIPARFSGSNSGNTATLTISGTQAMDEADYFCQTWDSSTVVFGGGTKLTVL

binding [3]: binds
binding [1]: binds
binding [4]: binds
binding [5]: binds
binding [6]: binds
binding [2]: binds
binding [7]: binds
B2: 1.4.1 (antibody, V domains shown)
VH: QLQLQESGPGLVKPSESLSLTCTVSGGSISIRTYYWGWIRQPPGTGLEWMGYIYYSGSTRYNPSLKSRVTISVDTSKNQFSLKLSSVTAADTAVYYCARLSYFFDYWGQGTLVTVSS
VL: SYELTQPPSVSVSPGQTASITCSGDKLGDKYACWYQQKPGQSPVMVIYQDTKRPSGIPERFSGSNSGNTATLTISGTLAMDEADYYCQAWDSGTVIFGGGTKLTVL

Source: patent publication US20250313634A1
